Measured values as given in patent publication US20040220149A1, “Nerve cell survival promoters containing cyclic phosphatidic acid derivative” (priority 2001, published 2004).
For at least one compound, name, drawing or mass did not settle the structure.

Test system: primary cultured nerve cells derived from a hippocampus of a rat fetal brain
Experiment: Influence of P13K inhibitors on the increase of nerve cell survival rate by cPA
Format: cell-based
Conditions: inhibitor 10 μM added 2 hours prior to cPA (1 μM); 48 hours after cPA addition

SMILES: O=c1cc(N2CCOCC2)oc2c(-c3ccccc3)cccc12 [LY294002]
- survival rate of nerve cells treated with cPA after inhibitor pretreatment: lowered it to the control value or lower
